Values of other authors in patent US20230172921A1, “LERIGLITAZONE FOR TREATING LUNG INFLAMMATION AND INTERSTITIAL LUNG DISEASE” (Minoryx Therapeutics S.L., priority 2020, published 2023).
At least one structure is not confirmed: it was looked up by name or label, or the drawing left a doubt.

System: endotoxin-induced lung inflammation
Conditions: healthy human volunteers; Chen et al., PLoS ONE 2018; cited from earlier work

In the case of `CCc1ccc(CCOc2ccc(CC3SC(=O)NC3=O)cc2)nc1` (stereo not shown) [Pioglitazone, reference compound], the “effect on endotoxin-induced lung inflammation” value is listed as “no effect”.
